Experimental findings from publication PMC7819943, “Rice protein-binding microarrays: a tool to detect cis-acting elements near promoter regions in rice” are described below.

Sequences of proteins named here, by UniProt entry; tags and fusion partners are left off.
UniProt Q0JBA9, entry or part of it: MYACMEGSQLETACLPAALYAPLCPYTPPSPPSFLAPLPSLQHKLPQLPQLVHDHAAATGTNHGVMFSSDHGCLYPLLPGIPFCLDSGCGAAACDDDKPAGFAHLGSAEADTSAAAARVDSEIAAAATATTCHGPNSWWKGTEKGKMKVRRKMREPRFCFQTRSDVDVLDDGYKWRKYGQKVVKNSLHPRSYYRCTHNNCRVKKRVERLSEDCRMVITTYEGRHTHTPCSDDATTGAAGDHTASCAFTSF

The list shows a part of the results.

For the test, the target named is OsWRKY34 (Oryza sativa, UniProt Q0JBA9 1-250). In words: protein-binding microarray (RPBM); PBS, 2% BSA, 51.3 ng/ul salmon testes DNA, 50 uM zinc acetate, 200 nM TF, 25 C, 1 h; high values mean tight binding. Conditions: protein: recombinant; tags: N-terminal polyhistidine and DsRed monomer fusion (pET32a); label: CyDye5-dUTP incorporated in the synthesized complementary strand; 3' TTTTT single-stranded linker to array surface; dsDNA, one strand shown. Summed up: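 Binding signal is defined as the fluorescence intensity of each feature in arbitrary units, read on an Axon 4000B scanner. Transcription factors with N-terminal polyhistidine and DsRed fusions came from E. coli BL21-CodonPlus and were purified on Ni–NTA. They were incubated at 200 nM for 1 h at 25 °C on a custom Agilent array that had been made double-stranded with Cy5-dUTP, with 50 µM zinc acetate present, and the array was washed.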
Turning to “ATGCTTGGGACCTTTATTTATTCACTACTACACTTTAAACCGGAGTCACCTAGTGCAG”, the binding signal is 9220 fluorescence intensity (a.u.).

Regarding “ATATCGGTCTCTTCATTCTCCACCTCGATAGCCGCCGAGACGGAGTCACCTAGTGCAG”, the binding signal is 12800 fluorescence intensity (a.u.).

Consider “CCGCCATGTGAGCCTTCCATCACCGTTTCCGCTCCTCACCCGGAGTCACCTAGTGCAG”, for which the binding signal was 8860 fluorescence intensity (a.u.).

For the sequence “TGGTCGTCTTCCTCCTCGAGCCATTCCACAAAATTCGGCACGGAGTCACCTAGTGCAG”, the binding signal is 8120 fluorescence intensity (a.u.).

Regarding “ACTACTGTATATTCCTATGCTCGTATATATACTACCCTGTCGGAGTCACCTAGTGCAG”, the binding signal was 10600 fluorescence intensity (a.u.).

Regarding “ATATTCAGCTGATTGGGGCATTGGGTATTTGCAGTGAGCACGGAGTCACCTAGTGCAG”, the binding signal was 8770 fluorescence intensity (a.u.).

For “CACTGATTTTGCTATGTTTACTTTATGTATAGGTGTTTCTCGGAGTCACCTAGTGCAG”, the binding signal is 10800 fluorescence intensity (a.u.).

For “AGCCGCGTGTCGACTATGATCTTCTAACTGCACACTATACCGGAGTCACCTAGTGCAG”, the binding signal is 11700 fluorescence intensity (a.u.).

For the sequence “CTATTCTGGCACCTACAATTCCAAGCTTATCACGACGATGCGGAGTCACCTAGTGCAG”, the binding signal is 12100 fluorescence intensity (a.u.).

On to “GCTTTTCGTCCCTATCTTGAATTCTCCTCTCTCTCAATCGCGGAGTCACCTAGTGCAG”, for which the binding signal was 8670 fluorescence intensity (a.u.).

With “CCCGCAGATGTGCTTCATCTCCTGCAGCTTCTTCACAATCCGGAGTCACCTAGTGCAG”, the binding signal was 9820 fluorescence intensity (a.u.).

For the sequence “ATTCCATTTCCATTCCCGCTTGATTTTCCCTCCCATTCTTCGGAGTCACCTAGTGCAG”, the binding signal was 8300 fluorescence intensity (a.u.).

“ACAGTCCCTCGCGTTGTCGCTGTCCGCCAGAGCGCCAGACCGGAGTCACCTAGTGCAG”: the binding signal is 10800 fluorescence intensity (a.u.).

Consider “TAATGTATGACGCCGTTGACTTTTTAACTAACGTTTGACCCGGAGTCACCTAGTGCAG”, for which the binding signal was 28700 fluorescence intensity (a.u.).

Consider “CCTGCCACCTCTCCCTCTCTCGCCCGCGCAGTCCACGCACCGGAGTCACCTAGTGCAG”, for which the binding signal was 9210 fluorescence intensity (a.u.).

In the case of “TCTTTCAATTCTTCTCTTGTATGGATGGTTTGGTTTGTTGCGGAGTCACCTAGTGCAG”, the binding signal was 9620 fluorescence intensity (a.u.).

Consider “TTTCCGTTTCTGAAACAGTGCCATTGACAGGTGGGCCCACCGGAGTCACCTAGTGCAG”, for which the binding signal was 8950 fluorescence intensity (a.u.).

In the case of “TTTTGCTTTACACTTTATTTGCTTGCATCTTCATTTTTTTCGGAGTCACCTAGTGCAG”, the binding signal is 10600 fluorescence intensity (a.u.).

On to “CGCTGAGTACGGTGGTTGTACTCAGTCTTGCTCTATTTTTCGGAGTCACCTAGTGCAG”, for which the binding signal was 8410 fluorescence intensity (a.u.).

As to “CACACCACAAGCGCACGACACACGTCACACACAAACCAACCGGAGTCACCTAGTGCAG”, the binding signal is 8960 fluorescence intensity (a.u.).

As for “AACTCCTACTCTACTGTACTCACAGTTGCACGGCTCAGAACGGAGTCACCTAGTGCAG”, the binding signal was 9340 fluorescence intensity (a.u.).

Regarding “TGGGTCCCACCTGTCATCGTCACTCCTCATTTCCTCCTCTCGGAGTCACCTAGTGCAG”, the binding signal is 9670 fluorescence intensity (a.u.).

Regarding “TTGTAGTAGTGAGGGATGCATTTGGTCAATTGATTTACACCGGAGTCACCTAGTGCAG”, the binding signal was 9020 fluorescence intensity (a.u.).

With “AACCATCCATTGCATGCTTGCTTCCATCTGATCTTCTTCTCGGAGTCACCTAGTGCAG”, the binding signal was 8970 fluorescence intensity (a.u.).

Turning to “CAAAACCTACTCTTTTTTTTTTTTTTGCGTCGAGTTTTCACGGAGTCACCTAGTGCAG”, the binding signal is 12600 fluorescence intensity (a.u.).

Turning to “ACTCATTTATCTTTTTTTTCTGTTTTTCTTCTTGTAGCAACGGAGTCACCTAGTGCAG”, the binding signal is 10400 fluorescence intensity (a.u.).

With “ATGTGGATTTGGGGTTCAATTTGACGATATGCATACCACTCGGAGTCACCTAGTGCAG”, the binding signal was 8390 fluorescence intensity (a.u.).

On to “TTCCTTGCATTGGTGGTTGGTAGGATAGATAATTGAGTATCGGAGTCACCTAGTGCAG”, for which the binding signal was 8060 fluorescence intensity (a.u.).

“TAGATTCTCTTTCTATTTTCTTTCCACTTAGCTTAGATATCGGAGTCACCTAGTGCAG”: the binding signal is 9100 fluorescence intensity (a.u.).

Take “ACTAGTCATTTCGTCATGCTACATATGCTACCCTGATGCTCGGAGTCACCTAGTGCAG”: the binding signal was 8180 fluorescence intensity (a.u.).

On to “ATAATAAGCCACTTCTTTCTTATGTGTTTCAATTCTCTTGCGGAGTCACCTAGTGCAG”, for which the binding signal is 8600 fluorescence intensity (a.u.).

Regarding “CCACCGCCGCCGCCGCCCACCCGTGCCCGCGCTCCACCAGCGGAGTCACCTAGTGCAG”, the binding signal was 11100 fluorescence intensity (a.u.).

For the sequence “CCTTTATTTTTTCTGTCTATCTCTCTCTCTCTTTTCTTTTCGGAGTCACCTAGTGCAG”, the binding signal was 12100 fluorescence intensity (a.u.).

For “GAATCACTTCCTACTCAACCTATTATCTACTCCTTCTAGCCGGAGTCACCTAGTGCAG”, the binding signal is 10600 fluorescence intensity (a.u.).

“ATTTTCACTGTCTCATATCAAATATTTGGATACATGTATACGGAGTCACCTAGTGCAG”: the binding signal was 8510 fluorescence intensity (a.u.).

In the case of “CGTCTGGCCCTCATTTGGTCCTGTTATTTTGGTAAAGCCCCGGAGTCACCTAGTGCAG”, the binding signal is 9060 fluorescence intensity (a.u.).

For “CAAAATTAACTTGCGCGCCACTCTGCCTCTCAACCCTTCACGGAGTCACCTAGTGCAG”, the binding signal was 9350 fluorescence intensity (a.u.).

Consider “CCATTTTGACTTCGCAATTATGTGCATTAATTAATCTCTTCGGAGTCACCTAGTGCAG”, for which the binding signal is 8470 fluorescence intensity (a.u.).

With “TGCCACGTTCCCGTGTCGTTTTGCTCCTCACCCGCGATCTCGGAGTCACCTAGTGCAG”, the binding signal was 8960 fluorescence intensity (a.u.).

Consider “TGAATGGATTTGTCTCTGGCCTCCGGGTACATCTGAACATCGGAGTCACCTAGTGCAG”, for which the binding signal was 8610 fluorescence intensity (a.u.).

With “CTTCGTTTCGGTTGGGTTGACTGATGCGCCTATGGTTTTGCGGAGTCACCTAGTGCAG”, the binding signal was 9830 fluorescence intensity (a.u.).

In the case of “AATTTCTACTGTCATGCTTCCTTGTCCCATTACTACATTGCGGAGTCACCTAGTGCAG”, the binding signal is 8450 fluorescence intensity (a.u.).
